Laboratory results from patent US8476197B2, “Aminopropenoates as fungicides” (priority 2009, dated 2013).
Some of these results come from one statement about several compounds together.

Test system: Peronospora parasitica
Assay: In vivo test on Peronospora parasitica (crucifer downy mildew), cabbage plants
Details: dose of 500 ppm, grading 5 days after contamination

Q: CCOC(=O)C(C#N)=C(NC(C)C(=O)Nc1ccc2ccccc2c1)c1cn(C)nc1C(F)F (stereo not drawn) [Compound 683] was tested. Which protection did it give?
A: The protection was “at least 70%”.

Q: How did the protection turn out when COC(=O)C(C#N)=C(NC(C)C1CC1)c1sc(C)nc1C(F)(F)F (stereo not drawn) [Compound 884] was run?
A: Its protection is “at least 70%”.

Q: How did the protection turn out when CCCCCC(C)NC(=C(C#N)C(=O)OCC)c1cn(C)nc1C(F)F (stereo not drawn) [Compound 853] was run?
A: The protection was “at least 70%”.

Q: How did the protection turn out when C=CCOC(=O)C(C#N)=C(NC(C)CSC)c1cccnc1Cl (stereo not drawn) [Compound 614] was run?
A: Its protection is “at least 70%”.

Q: With CCOC(=O)C(C#N)=C(NC(C)C1(Cl)CC1)c1sccc1C(F)(F)F (stereo not drawn) [Compound 769] as the molecule, how does the protection read?
A: Its protection is “at least 70%”.

Q: How did the protection turn out when CC(C)NC(=O)C(C#N)=C(NC(C)c1nccs1)c1cccnc1Cl (stereo not drawn) [Compound 101] was run?
A: The protection was “at least 70%”.

Q: CCOC(=O)C(C#N)=C(NC(C)COC)c1sc(C)nc1C(F)(F)F (racemic) [Compound 678] was tested. Which protection did it give?
A: The protection was “at least 70%”.

Q: For CCOC(=O)C(C#N)=C(NCc1ccc(F)cn1)c1cn(C)nc1C(F)F [Compound 203], which protection is on record?
A: Its protection is “at least 70%”.

Q: Which protection does the source give for CCOC(=O)CC(C)NC(=C(C#N)C(=O)OCC)c1cccnc1Cl (stereo not drawn) [Compound 615] here?
A: Its protection is “at least 70%”.

Q: How did the protection turn out when CCOC(=O)C(C#N)=C(NC(C)c1ncc(C)s1)c1sccc1Br (racemic) [Compound 169] was run?
A: The protection was “at least 70%”.

Q: CCOC(=O)C(C#N)=C(NCc1nccs1)c1ccsc1I [Compound 161] was tested. Which protection did it give?
A: Its protection is “at least 70%”.

Q: For C#CC(C)(C)NC(=C(C#N)C(=O)OCC)c1ccsc1Br [Compound 1029], which protection is on record?
A: Its protection is “at least 70%”.

Q: How did the protection turn out when CCOC(=O)C(C#N)=C(NC(C)CSC)c1ccc(C)nc1Cl (mixture of isomers) [Compound 633] was run?
A: The protection was “at least 70%”.

Q: With CCOC(=O)C(C#N)=C(NC(C)c1nc(C)c(C)s1)c1sc(C)nc1C(F)(F)F (racemic) [Compound 143] as the molecule, how does the protection read?
A: Its protection is “at least 70%”.

Q: For COC(=O)C(C#N)=C(NC(C)c1ccccc1)c1sc(C)nc1C(F)(F)F (mixture of isomers) [Compound 444], which protection is on record?
A: Its protection is “at least 70%”.

Q: For COC(=O)C(C#N)=C(NC(C)c1ccc(Cl)cc1)c1sc(C)nc1C(F)(F)F (stereo not drawn) [Compound 427], which protection is on record?
A: Its protection is “at least 70%”.

Q: How did the protection turn out when CCOC(=O)C(C#N)=C(NC(C)c1ccc(F)cc1)c1cn(C)nc1C(F)F (mixture of isomers) [Compound 454] was run?
A: Its protection is “at least 70%”.

Q: With CCOC(=O)C(C#N)=C(NC(C)c1ccc(F)cc1)c1sc(C)nc1C(F)(F)F (mixture of isomers) [Compound 450] as the molecule, how does the protection read?
A: Its protection is “at least 70%”.

Q: How did the protection turn out when CCOC(=O)C(C#N)=C(NC(C)c1nccs1)c1sccc1C(F)(F)F (stereo not drawn) [Compound 96] was run?
A: Its protection is “at least 70%”.

Q: CCOC(=O)C(C#N)=C(NC(C)CCCC(C)C)c1cn(C)nc1C(F)F (stereo not drawn) [Compound 925] was tested. Which protection did it give?
A: Its protection is “at least 70%”.

Q: How did the protection turn out when CCOC(=O)C(C#N)=C(NC(C)c1ncc(Br)s1)c1cccnc1Cl (racemic) [Compound 128] was run?
A: The protection was “at least 70%”.

Q: How did the protection turn out when CCOC(=O)C(C#N)=C(NCc1ccccn1)c1sc(C)nc1C(F)(F)F [Compound 144] was run?
A: The protection was “at least 70%”.

Q: Which protection does the source give for CCOC(=O)C(C#N)=C(NC(C)Cc1cc2ccccc2[nH]1)c1sc(C)nc1C(F)(F)F (racemic) [Compound 145] here?
A: Its protection is “at least 70%”.

Q: With CCOC(=O)C(C#N)=C(NC(C)C(=O)OCC)c1cn(C)nc1C(F)F (stereo not drawn) [Compound 686] as the molecule, how does the protection read?
A: Its protection is “at least 70%”.

Q: How did the protection turn out when CCOC(=O)C(C#N)=C(NC(C)c1ccccc1)c1sccc1C(F)(F)F (mixture of isomers) [Compound 440] was run?
A: Its protection is “at least 70%”.

Q: For CCOC(=O)C(C#N)=C(NC(C)c1nccs1)c1sc(C)nc1C(F)(F)F (racemic) [Compound 142], which protection is on record?
A: The protection was “at least 70%”.

Q: For COC(=O)C(C#N)=C(NC(C)c1nccs1)c1sc(C)nc1C(F)(F)F (stereo not drawn) [Compound 17], which protection is on record?
A: Its protection is “at least 70%”.

Q: For CCOC(=O)C(C#N)=C(NC(C)c1ccccn1)c1sccc1Br (stereo not drawn) [Compound 100], which protection is on record?
A: The protection was “at least 70%”.

Q: With CCOC(=O)C(C#N)=C(NC(C)C(=O)NC)c1sc(C)nc1C(F)(F)F (stereo not drawn) [Compound 642] as the molecule, how does the protection read?
A: Its protection is “at least 70%”.

Q: C#CC(C)(C)NC(=C(C#N)C(=O)OCC)c1cn(C)nc1C(F)(F)F [Compound 1031] was tested. Which protection did it give?
A: The protection was “at least 70%”.

Q: How did the protection turn out when C=CCOC(=O)C(C#N)=C(NC(C)c1nccs1)c1cccnc1Cl (stereo not drawn) [Compound 89] was run?
A: The protection was “at least 70%”.

Q: CCOC(=O)C(C#N)=C(NC(C)C(C)C)c1sccc1Br (stereo not drawn) [Compound 941] was tested. Which protection did it give?
A: Its protection is “at least 70%”.

Q: With CCOC(=O)C(C#N)=C(NC(C)c1nc(C)cs1)c1sc(C)nc1C(F)(F)F (stereo not drawn) [Compound 194] as the molecule, how does the protection read?
A: The protection was “at least 70%”.

Q: Which protection does the source give for CCOC(=O)C(C#N)=C(NC(C(=O)OC)C(C)C)c1sccc1C(F)(F)F (racemic) [Compound 658] here?
A: The protection was “at least 70%”.

Q: Which protection does the source give for C=CCCCC(C=C)NC(=C(C#N)C(=O)OCC)c1conc1C (stereo not drawn) [Compound 1020] here?
A: Its protection is “at least 70%”.

Q: Which protection does the source give for CCOC(=O)C(C#N)=C(NC(C)c1ccccc1)c1sccc1Br (mixture of isomers) [Compound 448] here?
A: The protection was “at least 70%”.

Q: With CCOC(=O)C(C#N)=C(NC(C)c1nc(C)c(C)s1)c1ccsc1Br (stereo not drawn) [Compound 112] as the molecule, how does the protection read?
A: Its protection is “at least 70%”.

Q: With CCOC(=O)C(C#N)=C(NC(C)C(=O)OC)c1sc(C)nc1C(F)(F)F (stereo not drawn) [Compound 680] as the molecule, how does the protection read?
A: Its protection is “at least 70%”.

Q: Which protection does the source give for CCOC(=O)C(C#N)=C(NC(C)c1nccs1)c1cccnc1Cl (stereo not drawn) [Compound 154] here?
A: Its protection is “at least 70%”.

Q: CCOC(=O)C(C#N)=C(NC(C)c1ccccn1)c1sccc1Cl (racemic) [Compound 160] was tested. Which protection did it give?
A: Its protection is “at least 70%”.

Q: Which protection does the source give for COC(=O)C(C#N)=C(NC(C)c1ccccn1)c1sc(C)nc1C(F)(F)F (racemic) [Compound 135] here?
A: Its protection is “at least 70%”.

Q: Which protection does the source give for CCOC(=O)C(C#N)=C(NC(C)c1ccccc1)c1sc(C)nc1C(F)(F)F (mixture of isomers) [Compound 452] here?
A: Its protection is “at least 70%”.

Q: Which protection does the source give for COCC(C)NC(=C(C#N)C(=O)OC)c1sc(C)nc1C(F)(F)F (racemic) [Compound 663] here?
A: Its protection is “at least 70%”.

Q: How did the protection turn out when COC(=O)C(C#N)=C(NC(C)Cc1c[nH]c2ccccc12)c1sc(C)nc1C(F)(F)F (racemic) [Compound 133] was run?
A: Its protection is “at least 70%”.

Q: Which protection does the source give for CCOC(=O)C(C#N)=C(NCc1nc(C)cs1)c1cn(C)nc1C(F)F [Compound 189] here?
A: The protection was “at least 70%”.

Q: How did the protection turn out when CCOC(=O)C(C#N)=C(NC(C)c1ncc(C)s1)c1sc(C)nc1C(F)(F)F (stereo not drawn) [Compound 196] was run?
A: Its protection is “at least 70%”.

Q: For CCOC(=O)C(C#N)=C(NC(C)C1CCCO1)c1sccc1Br (mixture of isomers) [Compound 186], which protection is on record?
A: Its protection is “at least 70%”.

Q: CCOC(=O)C(C#N)=C(NC(C)COC)c1sccc1Br (racemic) [Compound 671] was tested. Which protection did it give?
A: Its protection is “at least 70%”.

Q: Which protection does the source give for CCOC(=O)C(C#N)=C(NC(c1cc2ccccc2s1)C(F)(F)F)c1ccsc1Br (racemic) [Compound 130] here?
A: The protection was “at least 70%”.

Q: How did the protection turn out when CCOC(=O)C(C#N)=C(NC(C)C(C)C)c1sc(C)nc1C(F)(F)F (stereo not drawn) [Compound 949] was run?
A: Its protection is “at least 70%”.

Q: With CCOC(=O)C(C#N)=C(NC(C)c1ccc(Cl)cc1)c1cn(C)nc1C(F)(F)F (stereo not drawn) [Compound 430] as the molecule, how does the protection read?
A: The protection was “at least 70%”.

Q: Which protection does the source give for CCOC(=O)C(C#N)=C(NC(C)c1ccccc1)c1cn(C)nc1C(F)F (mixture of isomers) [Compound 456] here?
A: The protection was “at least 70%”.

Q: Which protection does the source give for CCOC(=O)C(C#N)=C(NC(C)CC#N)c1cccnc1Cl (stereo not drawn) [Compound 792] here?
A: Its protection is “at least 70%”.

Q: How did the protection turn out when CCOC(=O)C(C#N)=C(NCc1nccs1)c1ccsc1Br [Compound 104] was run?
A: Its protection is “at least 70%”.
